PubChem BioAssay AID652259 | Drosophila RNAi Screening Center | 2013

Screen: 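Genome-wide hunt for genes that control Wingless pathway activity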 (primary screen)
Cell system: Drosophila clone 8 imaginal disc epithelial cells
Knock-down reagent: long dsRNA against Drosophila genes
Conditions: pathway stimulated by co-transfected Wingless expression plasmid
Read-out: 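Firefly luciferase from a tcf-site Wingless reporter, measured alongside co-transfected Renilla luciferase that tracks transfection; pathway stimulated by a Wingless plasmid; the firefly-to-Renilla ratio is not deposited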
Reading the numbers: firefly reporter light: higher = more Wg reporter light, before normalisation; Renilla control light: higher = more transfected or surviving cells
Active means: 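a knock-down is a candidate when at least two out of four statistical tests show it departing from its plate mean; one test alone signals a weak candidate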
Calls: active = candidate regulator (raises or lowers reporter); inactive = not a candidate
The screen tested about 22,000 reagents; below is an unselected part of those that have a named target and a result. Over the whole deposit, 233 (1.1%) got an active call. 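Light values are raw, unnormalised plate reads; the ratio scores behind the reporter calls were not deposited.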 A plus sign joins genes that one reagent is predicted to hit. The record does not give: the amount of reagent, the time to read-out, the dose of the treatment.

Gene	dsRNA	reporter change call, replicate 1	firefly reporter light, replicate 1	firefly reporter light, replicate 2	Renilla control light, replicate 1	Renilla control light, replicate 2	Outcome
CG14142	DRSC10145		5865		2505		inactive
Hsc70-1 (Heat shock protein 70 cognate 1)	DRSC11185		5346		1652		inactive
CG6055	DRSC02923		2679	8448	864	3027	inactive
CG12502	DRSC08281		6403		2384		inactive
CG13807	DRSC08342		4323		2600		inactive
CG14694	DRSC14917		14328		3389		inactive
Lcp3 (Larval cuticle protein 3)	DRSC07457		2816	8506	1050	2680	inactive
Atg1 (Autophagy-related 1)	DRSC09809		3410		1067		inactive
Atg1 (Autophagy-related 1)	DRSC09810		8760		3276		inactive
cuff (cutoff)	DRSC06315		7970		3600		inactive
CG1620	DRSC06603		14848		4069		inactive
Polr2C (RNA polymerase II subunit C)	DRSC03415		9786		1797		inactive
retn (retained)	DRSC04679		3318	10226	786	3714	inactive
lncRNA:CR32368 (long non-coding RNA:CR32368)	DRSC08899		4694		1882		inactive
CG31886	DRSC03248		10871		3484		inactive
CG33475	DRSC22943		5.89e5	5.81e5	2.53e5	2.06e5	inactive
CG15772	DRSC18078		14129		7072		inactive
NdufA3 (NADH:ubiquinone oxidoreductase subunit A3)	DRSC18431		16739		11282		inactive
CG32507	DRSC20421		6186		2387		inactive
tnc (tenectin)	DRSC14647		18262		14081		inactive
CG30432	DRSC04833		20304		8864		inactive
CG15550	DRSC15088		5041		2202		inactive
CG13471	DRSC10015		5017		2172		inactive
CG32808	DRSC17689		4299		1698		inactive
CG3308	DRSC15474		3270	7398	1144	2515	inactive
CG14857	DRSC14981		15402		3250		inactive
CG13877 + pyx	DRSC08347		8839		3108		inactive
fest (wurstfest)	DRSC07349		7898		1674		inactive
CG15005	DRSC08459		8929		4008		inactive
AP-2mu (Adaptor Protein complex 2, mu subunit)	DRSC14090		8840	13689	1496	2165	inactive
Desat1 (Desaturase 1)	DRSC16668		14672		2891		inactive
Mlc1 (Myosin alkali light chain 1)	DRSC16740		10994		2979		inactive
Not3 (CCR4-NOT transcription complex subunit 3)	DRSC04908		17958		2321		inactive
CG14442	DRSC17935		1770	10184	436	1750	inactive
Mlh1	DRSC07473		9381		3155		inactive
amx (almondex)	DRSC18736		16490		4202		inactive
prd (paired)	DRSC03597		11104		3760		inactive
r + CG13012	DRSC19531		20272		8293		inactive
ppk6 (pickpocket 6)	DRSC06062		4426		1883		inactive
hrm (hermes)	DRSC04853		2199	6810	856	2262	inactive
slp1 (sloppy paired 1)	DRSC00835		7554		4889		inactive
CG17377	DRSC00950		29826		13377		inactive
CG17377	DRSC02615		18141		6661		inactive
CG17377	DRSC21811		5.94e5	6.80e5	1.78e5	1.87e5	inactive
CG6293	DRSC16011		7449		2880		inactive
RpL37-2 (Ribosomal protein L37-2)	DRSC04584		3260	9099	656	2269	inactive
Gbp2 (Growth-blocking peptide 2)	DRSC06069		17725		3656		inactive
CG30385	DRSC06031		2005	7256	645	3245	inactive
SERCA (Sarco/endoplasmic reticulum Ca(2+)-ATPase)	DRSC04600		15453		3632		inactive
X11Lbeta	DRSC18156		20753		8988		inactive
X11Lbeta	DRSC18158		20105		9189		inactive
Sr-CIV (Scavenger receptor class C, type IV)	DRSC00575		3156	8342	1050	2288	inactive
phtm (phantom)	DRSC20237		20019		11563		inactive
nolo (no long nerve cord)	DRSC03705		6496		1522		inactive
nolo (no long nerve cord)	DRSC03719		2707	6843	675	2377	inactive
nolo (no long nerve cord)	DRSC03720		5411	6584	710	2226	inactive
pug (pugilist)	DRSC17036		9484		2768		inactive
NimC3 (Nimrod C3)	DRSC03556		3174	10672	1666	4901	inactive
NimC3 (Nimrod C3)	DRSC22528		6.29e5	6.67e5	2.71e5	1.77e5	inactive
CG7840	DRSC03075		13669		6507		inactive
sip3 (septin interacting protein 3)	DRSC15402		2252	6553	944	2025	inactive
Tsp5D (Tetraspanin 5D)	DRSC18380		23624		11720		inactive
Cyp1 (Cyclophilin 1)	DRSC20234		3420	11397	1225	2839	inactive
CG12123	DRSC17818		2465	3996	1179	1884	inactive
Lpt (Lost PHDs of trr)	DRSC04291		2471	6101	1037	3353	inactive
Lpt (Lost PHDs of trr)	DRSC04515		5987		2328		inactive
Roc1b + Cdc5	DRSC08687		5240		3893		inactive
vimar (visceral mesodermal armadillo-repeats)	DRSC05026		12304		3104		inactive
hgo (homogentisate 1,2-dioxygenase)	DRSC03544		2914	6599	1254	2493	inactive
CG16865	DRSC01904		1719	4211	850	2828	inactive
csw (corkscrew)	DRSC18756		20272		10500		inactive
CG34404	DRSC15335		15782		4291		inactive
CG34404	DRSC15978		5527		1905		inactive
CG6420	DRSC16035		5460		2550		inactive
CG13887	DRSC08357		15744		4242		inactive
Gmer (GDP-4-keto-6-deoxy-D-mannose 3,5-epimerase/4-reductase)	DRSC04376		11655		3315		inactive
CG13026	DRSC09906		8819		3837		inactive
CG6034	DRSC10572		6804		2968		inactive
CG4025	DRSC18523		19826		10771		inactive
CG13344	DRSC06378		15312		5736		inactive
comm2	DRSC09881	Wg reporter activity raised	8104		860		active
comm2	DRSC10877		8304		3805		inactive
Pstk + Tim9b	DRSC19504		2841	7120	1074	1936	inactive
Pstk + Tim9b	DRSC20292		22931		11606		inactive
CG33777	DRSC08107		4186		1914		inactive
CG42807	DRSC06966		8416		2648		inactive
CG11349	DRSC08179		1094	6828	896	2817	inactive
Chchd2 (Coiled-coil-helix-coiled-coil-helix domain containing 2)	DRSC19931		25832	6.98e5	13857	3.46e5	inactive
c-cup (calcutta cup)	DRSC00458		2858	12253	1117	3569	inactive
CG13841	DRSC14691		12269		10476		inactive
nur (nemuri)	DRSC01342		16688		7910		inactive
GstT2 (Glutathione S transferase T2)	DRSC06244		2145	6944	928	3620	inactive
CG31279	DRSC13158		3654		1453		inactive
